Protein sequences, listed by entry. Tags and fused reporters are not part of them. Lines headed by an entry give the natural chain unless they say otherwise; changes in a name come on top.
UniProt P10635, whole entry: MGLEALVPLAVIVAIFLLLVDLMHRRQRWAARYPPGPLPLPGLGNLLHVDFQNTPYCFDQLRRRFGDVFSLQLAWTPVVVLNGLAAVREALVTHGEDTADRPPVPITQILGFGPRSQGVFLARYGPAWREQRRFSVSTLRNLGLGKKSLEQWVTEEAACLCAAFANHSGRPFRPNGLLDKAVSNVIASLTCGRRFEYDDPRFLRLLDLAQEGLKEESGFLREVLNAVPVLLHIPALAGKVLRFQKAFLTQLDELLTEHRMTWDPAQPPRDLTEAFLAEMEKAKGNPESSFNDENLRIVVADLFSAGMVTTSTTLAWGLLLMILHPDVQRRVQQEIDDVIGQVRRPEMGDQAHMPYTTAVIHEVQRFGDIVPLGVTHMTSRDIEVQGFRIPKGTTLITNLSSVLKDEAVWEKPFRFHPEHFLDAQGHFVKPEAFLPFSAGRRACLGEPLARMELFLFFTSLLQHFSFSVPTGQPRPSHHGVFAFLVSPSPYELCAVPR
UniProt Q12809: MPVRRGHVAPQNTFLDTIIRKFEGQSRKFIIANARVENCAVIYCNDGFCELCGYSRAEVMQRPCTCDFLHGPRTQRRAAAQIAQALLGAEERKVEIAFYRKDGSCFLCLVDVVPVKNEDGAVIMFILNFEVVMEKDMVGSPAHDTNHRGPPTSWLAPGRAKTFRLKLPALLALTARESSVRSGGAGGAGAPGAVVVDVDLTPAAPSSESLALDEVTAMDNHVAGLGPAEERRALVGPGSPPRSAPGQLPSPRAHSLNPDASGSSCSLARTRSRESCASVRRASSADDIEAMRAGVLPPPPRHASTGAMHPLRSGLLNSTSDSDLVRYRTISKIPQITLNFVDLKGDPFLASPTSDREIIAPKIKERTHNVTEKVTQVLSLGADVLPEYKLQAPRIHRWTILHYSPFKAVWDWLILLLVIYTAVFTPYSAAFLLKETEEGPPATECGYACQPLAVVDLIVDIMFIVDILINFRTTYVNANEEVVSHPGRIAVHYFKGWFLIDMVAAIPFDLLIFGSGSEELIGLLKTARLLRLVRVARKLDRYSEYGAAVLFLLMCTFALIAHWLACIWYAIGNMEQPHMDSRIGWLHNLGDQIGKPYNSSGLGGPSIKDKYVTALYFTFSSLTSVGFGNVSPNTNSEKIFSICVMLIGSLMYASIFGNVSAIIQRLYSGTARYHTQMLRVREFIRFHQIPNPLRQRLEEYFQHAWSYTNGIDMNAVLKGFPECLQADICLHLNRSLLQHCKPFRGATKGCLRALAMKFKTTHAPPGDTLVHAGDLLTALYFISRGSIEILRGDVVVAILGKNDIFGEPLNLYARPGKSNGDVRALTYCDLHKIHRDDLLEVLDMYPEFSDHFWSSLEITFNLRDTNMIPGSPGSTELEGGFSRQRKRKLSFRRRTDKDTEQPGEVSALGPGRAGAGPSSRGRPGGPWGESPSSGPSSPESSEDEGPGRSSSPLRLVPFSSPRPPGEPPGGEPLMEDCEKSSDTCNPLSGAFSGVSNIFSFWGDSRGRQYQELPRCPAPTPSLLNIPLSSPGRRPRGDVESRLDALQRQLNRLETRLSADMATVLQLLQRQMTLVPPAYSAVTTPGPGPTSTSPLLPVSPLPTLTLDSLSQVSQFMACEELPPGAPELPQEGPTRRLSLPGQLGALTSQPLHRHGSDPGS
UniProt P11712, whole entry: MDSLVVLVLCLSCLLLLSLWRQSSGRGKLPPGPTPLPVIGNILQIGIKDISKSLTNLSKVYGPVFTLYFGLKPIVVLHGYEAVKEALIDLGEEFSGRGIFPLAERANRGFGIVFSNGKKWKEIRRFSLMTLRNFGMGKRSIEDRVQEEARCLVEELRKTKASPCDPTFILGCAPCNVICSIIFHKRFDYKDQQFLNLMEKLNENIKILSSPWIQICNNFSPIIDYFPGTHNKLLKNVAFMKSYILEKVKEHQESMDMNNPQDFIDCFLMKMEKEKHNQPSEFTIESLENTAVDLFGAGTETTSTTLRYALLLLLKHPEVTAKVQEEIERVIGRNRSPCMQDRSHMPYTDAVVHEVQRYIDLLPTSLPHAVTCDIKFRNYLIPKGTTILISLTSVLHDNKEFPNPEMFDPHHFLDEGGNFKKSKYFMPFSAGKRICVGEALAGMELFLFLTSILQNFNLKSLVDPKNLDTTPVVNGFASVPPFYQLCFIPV

According to ChEMBL document CHEMBL5532667 (J Med Chem, 2024):

Tests used:
Cytochrome P450 2D6 = Cytochrome P450 2D6 (Homo sapiens, UniProt P10635)
[1] = target: Voltage-gated inwardly rectifying potassium channel KCNH2 (Homo sapiens, UniProt Q12809)
Cytochrome P450 2C9 = Cytochrome P450 2C9 (Homo sapiens, UniProt P11712)

C[C@](O)(CN1CC2CC(C1)N2c1ccc(C#N)cc1)C(=O)Nc1cnc(C#N)c(C(F)(F)F)c1
IC50 (Cytochrome P450 2D6): 2.72 µM
IC50 [1]: 20.1 µM
IC50 (Cytochrome P450 2C9): 10.8 µM
